# Experimental data taken from the supplement of paper PMC12889115.
# Some of the results follow. These are raw signals, not scaled to a control.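 In the initial screen, polymyxin B was used at a concentration that permeabilizes Salmonella's outer membrane but not its inner membrane. Maximum growth was set by DMSO wells with or without polymyxin B. Since plates varied, data were ranked per plate, and compounds giving the lowest OD600 advanced as hits.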
# Tested on: Salmonella enterica serovar Typhimurium SL1344
# Assay: bacterial growth OD600 after 18 h with compound and polymyxin B; higher = more bacterial growth (less inhibition)
# Settings: 50 µM, Mueller-Hinton broth
Compound,bacterial growth OD600 (polymyxin B 1 µg/mL),bacterial growth OD600 (polymyxin B 0.75 µg/mL)
CC(=O)CCC(=O)N1CCCC(CNC(=O)c2ccc(-c3ccccc3)cc2)C1 (configuration not stated),1.01,–
Cn1ccnc1CN1CCCC(CCc2cccc(F)c2)C1 (configuration not stated),–,0.854
O=C(CC(c1ccccc1)c1ccc(Cl)cc1)NCCc1cnccn1 (configuration not stated),0.913,–
O=C(c1ccccc1OC1CCN(Cc2ccco2)CC1)N1CCCC1,–,0.729
Cc1cc(Cl)ccc1C(=O)C1CCCN(Cc2cccn2-c2nccs2)C1 (configuration not stated),0.777,–
CCCC1(C2CCN(C(=O)c3sc(C)nc3C)CC2)NC(=O)N(CCc2ccccn2)C1=O (configuration not stated),–,0.725
O=C(NCc1ccccc1)c1coc(CN2CCN(c3ncccn3)CC2)n1,0.933,–
Cc1cc(C)n(Cc2cc(C(=O)NCCCN3CCCC3=O)n[nH]2)n1,1.19,–
CC1(C)Cc2nc(N3CCOCC3)ncc2C(NC(=O)c2cccs2)C1 (configuration not stated),–,0.805
C[C@@H]1C[C@@H](C(=O)NCC2(N(C)Cc3ccccc3)Cc3ccccc3C2)NC(=S)N1,0.854,–
CN1CCCCC1C(=O)NCc1cccnc1Oc1cccc(C(F)(F)F)c1 (configuration not stated),0.946,–
CCOC(=O)C1(CC2CCCCO2)CCN(C(=O)Nc2ccccc2)CC1 (configuration not stated),–,0.734
O=C(c1cc[nH]n1)N1CCC(C2CCN(CCc3ccccc3)CC2)C1 (configuration not stated),1.03,–
CC(C)(C)C(=O)Nc1ccnn1C1CCN(C(=O)c2cc(F)ccc2F)CC1,0.869,–
O=C(Nc1cnn(CC(=O)N2CCC(Oc3ccccc3F)CC2)c1)c1ccc2c(c1)OCO2,–,0.762
COc1ccc2nc(N3CCC(NCC(C)C)CC3)nc(C)c2c1,–,0.829

Compound,bacterial growth OD600 (polymyxin B 1 µg/mL),bacterial growth OD600 (polymyxin B 0.75 µg/mL)
CC(C)c1ccc(NC2CCCN(C(=O)CN3C(=O)c4ccccc4C3=O)C2)cc1 (configuration not stated),0.286,–
CCOc1ccccc1-c1nc(CN(C)C(C)c2cccc(OC)c2)c(C)o1 (configuration not stated),0.799,–
COc1cccc(-c2ccc(NC(=O)C3CCCN3C3CCSCC3)cc2)c1 (configuration not stated),–,0.515
CCc1noc(CN(CC)c2ccc(-c3nc(C(C)C)no3)cn2)n1,–,0.653
O[C@@H]1CN(Cc2ccc(OC(F)F)cc2)CC[C@H]1N1CCN(CCc2ccccc2)CC1,1.18,–
CCCC(=O)N1CCCCC1C(=O)Nc1cccc(-c2nnc(C)s2)c1 (configuration not stated),1.07,–
O=C(C1CC1)N1CCC(Oc2ccc(C(=O)N3C[C@@H]4CCC[C@H]3C4)cc2)CC1,0.853,–
COc1ccc(OC2CCN(C(C)=O)CC2)c(C(=O)NCc2cccs2)c1,1.05,–
COCc1ccc(C(=O)Nc2ccc(-c3nc(CNC(=O)c4cnccn4)c(C)o3)cc2)o1,–,0.735
Cc1cc(C)n(Cc2ccc(C(=O)N3CCCC(c4nc(C)ncc4-c4ccc(F)cc4)C3)cc2)n1 (configuration not stated),–,0.716
COc1cccc(N2C(=O)CN(C(=O)CN3C(=O)c4ccccc4C3=O)CC2C)c1 (configuration not stated),–,0.82
COc1ccc(CN2CCC(CO)(Cc3ccc(Cl)cc3)CC2)c(OC)c1C,–,0.728
COCCN1CC(C(=O)NCCc2nc(-c3ccccc3)no2)CCC1=O (configuration not stated),0.948,–
COc1ccc(Cl)cc1NC(=O)CCC1CCCN(C(=O)CCc2c(C)noc2C)C1 (configuration not stated),0.966,–
COc1ccc(N2CCN(C3CCCN(C(=O)c4ccccc4SC)C3)CC2)cc1 (configuration not stated),0.875,–
CCC1CN(CC(=O)NC2CCc3ccccc32)Cc2cc(OC)ccc2O1 (configuration not stated),–,0.661

# 8 entries out of the list, arranged by molar mass, rising:
Compound,bacterial growth OD600 (polymyxin B 1 µg/mL),bacterial growth OD600 (polymyxin B 0.75 µg/mL)
Cn1ccnc1CN1CCCC(CCc2cccc(F)c2)C1 (configuration not stated),–,0.854
Cc1cc(C)n(Cc2cc(C(=O)NCCCN3CCCC3=O)n[nH]2)n1,1.19,–
O=C(c1ccccc1OC1CCN(Cc2ccco2)CC1)N1CCCC1,–,0.729
O=C(CC(c1ccccc1)c1ccc(Cl)cc1)NCCc1cnccn1 (configuration not stated),0.913,–
O=C(NCc1ccccc1)c1coc(CN2CCN(c3ncccn3)CC2)n1,0.933,–
COc1cccc(-c2ccc(NC(=O)C3CCCN3C3CCSCC3)cc2)c1 (configuration not stated),–,0.515
C[C@@H]1C[C@@H](C(=O)NCC2(N(C)Cc3ccccc3)Cc3ccccc3C2)NC(=S)N1,0.854,–
COCc1ccc(C(=O)Nc2ccc(-c3nc(CNC(=O)c4cnccn4)c(C)o3)cc2)o1,–,0.735
